Experimental data reported in patent US20110091467A1 (CENTRE FOR ADDICTION AND MENTAL HEALTH, published 2011).
Results are given in words; binding and its absence hold for the method and conditions named. Binding seen in cells or lysates may run through a third protein. Some binding calls cover weakened binding; strength is not graded here.

Sequences of proteins named here, by UniProt entry; tags and fusion partners are left off.
UniProt P23977: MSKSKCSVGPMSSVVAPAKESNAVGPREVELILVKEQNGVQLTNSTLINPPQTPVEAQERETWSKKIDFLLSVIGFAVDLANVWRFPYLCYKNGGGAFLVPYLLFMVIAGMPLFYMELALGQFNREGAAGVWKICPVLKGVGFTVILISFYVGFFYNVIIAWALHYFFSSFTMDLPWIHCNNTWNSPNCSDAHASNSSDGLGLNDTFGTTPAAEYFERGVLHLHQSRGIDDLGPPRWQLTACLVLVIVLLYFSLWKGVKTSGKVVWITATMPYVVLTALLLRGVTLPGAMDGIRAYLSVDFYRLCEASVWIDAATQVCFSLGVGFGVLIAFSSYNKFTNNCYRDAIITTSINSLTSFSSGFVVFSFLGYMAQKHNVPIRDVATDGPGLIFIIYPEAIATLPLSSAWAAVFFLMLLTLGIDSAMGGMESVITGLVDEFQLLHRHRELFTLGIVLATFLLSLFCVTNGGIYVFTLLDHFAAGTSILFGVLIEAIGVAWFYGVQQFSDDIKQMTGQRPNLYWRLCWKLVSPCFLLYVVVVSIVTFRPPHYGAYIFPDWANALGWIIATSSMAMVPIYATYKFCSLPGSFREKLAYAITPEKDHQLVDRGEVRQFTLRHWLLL
UniProt P61169: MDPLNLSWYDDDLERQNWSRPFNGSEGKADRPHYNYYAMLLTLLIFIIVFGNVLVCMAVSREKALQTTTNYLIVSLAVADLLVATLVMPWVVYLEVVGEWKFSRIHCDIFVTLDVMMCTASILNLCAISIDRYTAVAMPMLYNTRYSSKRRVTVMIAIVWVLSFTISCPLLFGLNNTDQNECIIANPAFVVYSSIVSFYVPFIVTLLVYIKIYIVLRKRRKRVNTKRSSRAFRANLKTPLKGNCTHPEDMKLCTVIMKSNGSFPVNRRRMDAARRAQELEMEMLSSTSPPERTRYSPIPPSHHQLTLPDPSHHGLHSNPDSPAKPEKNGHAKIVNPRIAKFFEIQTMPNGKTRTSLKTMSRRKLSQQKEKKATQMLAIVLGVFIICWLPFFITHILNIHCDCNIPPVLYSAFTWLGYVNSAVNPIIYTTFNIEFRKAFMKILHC

Key:
[1] = biological target: dopamine transporter (DAT) from solubilized rat striatal tissue (rat) (UniProt P23977); test: co-immunoprecipitation from rat striatal tissue, Western blot
[2] = biological target: dopamine transporter (DAT) from solubilized rat striatal tissue (rat) (UniProt P23977); test: co-immunoprecipitation, FIG. 1A

binding [1]: binds
binding [2]: binds
Substance: dopamine D2 receptor from solubilized rat striatal tissue (from UniProt P61169 1-444)
